PubChem BioAssay AID743121, NCATS – 2013
Shown is a random part of about 26,000 reagents tested. In the full data, 167 (0.63%) are marked active. 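Calls are per gene from RSA p-values that are not deposited; an individual active-marked siRNA can sensitise only weakly.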 Unmarked entries are inactive. Reagents against one gene are numbered here. Not all columns of the deposit are shown. No sequences are given here.

Aim: 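Partners whose loss is lethal together with topoisomerase I blockade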 (primary screen)
Cells: MDA-MB-231 cells, a human breast cancer line
Reagent: single siRNA against human genes, 20 nM siRNA (0.8 pmol per well)
Timing: 120 h (drug added 48 h after transfection, read 72 h later)
Conditions: camptothecin 20 nM (about EC30) for 72 h; vehicle 0.1% DMSO in parallel plates
Measurement: 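Cell viability by ATP luminescence (CellTiter-Glo) as % of non-targeting siRNA wells, and the log2 ratio of viability without drug over viability with camptothecin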
Scale: log2 vehicle/camptothecin viability: higher = stronger sensitisation to camptothecin
Active means: 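Each gene scored by redundant siRNA activity (RSA) over its individual siRNA ratios; a gene is called active at p < 0.001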

Depletion of GNPAT #1 came out at: log2 vehicle/camptothecin viability -0.108.
Depletion of GNPAT #2 came out at: log2 vehicle/camptothecin viability -0.222.
Depletion of GNPAT #3 resulted in: log2 vehicle/camptothecin viability 0.512.
Against GNPAT #4, the values are log2 vehicle/camptothecin viability 0.459.
Depletion of APPBP2 #1 resulted in: log2 vehicle/camptothecin viability -0.0989.
APPBP2 #2 scored log2 vehicle/camptothecin viability -0.134.
APPBP2 #3 gave log2 vehicle/camptothecin viability -0.188.
For APPBP2 #4 the deposit lists log2 vehicle/camptothecin viability -0.474.
With knock-down of PTPRJ #1, the screen gave log2 vehicle/camptothecin viability -0.112.
Silencing of PTPRJ #2 gave: log2 vehicle/camptothecin viability -0.0273.
Silencing of PTPRJ #3 came out at: log2 vehicle/camptothecin viability -0.437.
PTPRJ #4 gave log2 vehicle/camptothecin viability -0.415.
With knock-down of HSP90AA1 #1 the results were log2 vehicle/camptothecin viability -0.461.
Depletion of HSP90AA1 #2 resulted in: log2 vehicle/camptothecin viability -0.485.
After knock-down of HSP90AA1 #3, the screen gave log2 vehicle/camptothecin viability 0.123.
HSP90AA1 #4 showed log2 vehicle/camptothecin viability -0.241.
RBM14 #1 showed log2 vehicle/camptothecin viability 0.0466.
Knock-down of RBM14 #2 resulted in: log2 vehicle/camptothecin viability -0.339.
With knock-down of RBM14 #3, the screen gave log2 vehicle/camptothecin viability -0.126.
RBM14 #4 gave log2 vehicle/camptothecin viability 0.229.
After knock-down of DHRS3 #1, the screen gave log2 vehicle/camptothecin viability -0.224.
DHRS3 #2 showed log2 vehicle/camptothecin viability -3.04.
After knock-down of DHRS3 #3, the record shows log2 vehicle/camptothecin viability 0.258.
Against DHRS3 #4 the deposit lists log2 vehicle/camptothecin viability -0.0211.
Depletion of PRKRA #1 resulted in: log2 vehicle/camptothecin viability -0.476.
After knock-down of PRKRA #2 the results were log2 vehicle/camptothecin viability -0.348.
Knock-down of PRKRA #3 resulted in: log2 vehicle/camptothecin viability 0.162.
Depletion of PRKRA #4 gave: log2 vehicle/camptothecin viability 0.379.
CPT2 #1 gave log2 vehicle/camptothecin viability -0.434.
Knock-down of CPT2 #2 came out at: log2 vehicle/camptothecin viability -0.374.
For CPT2 #3 the deposit lists log2 vehicle/camptothecin viability -0.0879.
CPT2 #4 showed log2 vehicle/camptothecin viability -0.0237.
For CYP4V2 #1, the entry reads log2 vehicle/camptothecin viability 0.12.
For CYP4V2 #2, the entry reads log2 vehicle/camptothecin viability -0.0718.
Silencing of CYP4V2 #3 resulted in: log2 vehicle/camptothecin viability 0.045.
After knock-down of CYP4V2 #4, the record shows log2 vehicle/camptothecin viability -0.229.

4 entries from above, ordered by “log2 vehicle/camptothecin viability”, descending.
DHRS3 #3: log2 vehicle/camptothecin viability = 0.258
DHRS3 #4: log2 vehicle/camptothecin viability = -0.0211
PRKRA #1: log2 vehicle/camptothecin viability = -0.476
DHRS3 #2: log2 vehicle/camptothecin viability = -3.04
